The values are deposited in ChEMBL (CHEMBL3988442, “University of Dundee, Small-Polar-MMV Screening Library” (2021)).

Each number is a percent effect as filed.
How 0% and 100% were set is not recorded. Most values in the screen are low, and negative values occur.
Compounds were drawn at random from those tested, without regard to their results.

Mtb growth Cornell: 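Whole-cell assay for inhibitors of Mycobacterium tuberculosis growth, labelled Cornell in the record; the read-out is not stated. The concentration is filed as 10 mM, unlikely as a test dose, so the dose is not known. The record gives no direction; compounds strong in two other growth screens of this library score well above the rest, so higher reads as stronger inhibition. Size under these conditions: about 53,000 compounds, about 900 of them at 50% or above in at least one test.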
Mtb heat-shock: 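Assay on Mycobacterium tuberculosis, filed only as a heat shock assay from Cornell; the read-out is not stated. The concentration is filed as 10 mM, unlikely as a test dose, so the dose is not known. Higher reads as stronger inhibition (inferred: compounds with an IC50 in retests scored well above the rest). Size under these conditions: about 69,000 compounds, about 930 of them at 50% or above in at least one test.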

Compound: CCC(CC)NCC(c1ccccn1)N1CCOCC1 (configuration not stated)
Mtb growth Cornell: 6.49%
Mtb heat-shock: 3.571%

Compound: Cc1cc2c(o1)CC(C)(C)CC2NC(=O)CNC(=O)C1CC1 (configuration not stated)
Mtb growth Cornell: 8.754%
Mtb heat-shock: 36.93%

Compound: Cc1ccc(F)cc1S(=O)(=O)NCc1cccnc1N(C)C
Mtb growth Cornell: 17.26%
Mtb heat-shock: 19.58%

Compound: CCN1C(=O)CC(c2cccnc2)C12CCN(c1ncc(F)cn1)CC2 (configuration not stated)
Mtb growth Cornell: 22.52%
Mtb heat-shock: 0.07606%

Compound: Cc1ccc(CS(=O)(=O)CC(=O)NCc2ccccc2F)cc1
Mtb growth Cornell: 15.77%
Mtb heat-shock: 12.43%

Compound: [H][C@]12CCCCN1CCC[C@@]2(O)CN(C)Cc1nc(CC(C)C)no1
Mtb growth Cornell: 6.534%
Mtb heat-shock: 8.544%

Compound: [H][C@@]12CCN(c3cnccn3)C[C@@]1(C(=O)O)CCCN2Cc1ccccn1
Mtb growth Cornell: -19.02%
Mtb heat-shock: -29.53%

Compound: CC(C)N1CCc2c(CN(C)Cc3ccco3)cncc2C1.Cl.Cl.Cl
Mtb growth Cornell: 17.95%
Mtb heat-shock: 2.525%

Compound: [H][C@@]12CN(Cc3csc(C)n3)C[C@]1([H])CN(C(=O)c1ccncc1)C2
Mtb growth Cornell: -4.277%
Mtb heat-shock: 4%

Compound: CNC(=O)c1cccnc1NCc1ccc(Cn2ccnc2)cc1
Mtb heat-shock: -120.3%

Compound: CC(C)C(NC(=O)c1cnc(N2CCOCC2)nc1)c1cccs1 (configuration not stated)
Mtb growth Cornell: 69.04%
Mtb heat-shock: 45.54%

Compound: COc1ccc(CCC(=O)N2CCCC2Cn2cc(C)cn2)cc1F (configuration not stated)
Mtb heat-shock: -19.44%

Compound: Cc1cc(CCC(=O)Nc2nncs2)nc(C2CCCN2)n1.Cl (configuration not stated)
Mtb growth Cornell: -10.94%
Mtb heat-shock: -11.36%

Compound: COc1ccnc(N2CCC3(CCCN(CC4CC4)C3=O)C2)n1 (configuration not stated)
Mtb growth Cornell: 39.65%
Mtb heat-shock: 12.65%

Compound: CCOCC(O)CN1CCN(C(=O)CC(C)C)CC1 (configuration not stated)
Mtb growth Cornell: -17.21%
Mtb heat-shock: 10.17%

Compound: Cc1nc(CNCC2CN(C)CCO2)cs1 (configuration not stated)
Mtb growth Cornell: 0.5218%
Mtb heat-shock: -7.018%

Compound: Cc1nc2cc(O)nn2c(C)c1CCC(=O)N(C)Cc1ccccc1
Mtb growth Cornell: 12.33%
Mtb heat-shock: 2.169%

Compound: CC(C)C(Sc1nnnn1C1CC1)C(=O)NCc1cccnc1 (configuration not stated)
Mtb growth Cornell: -14.97%
Mtb heat-shock: -23.1%

Compound: O=C(NCCCN1CCc2ccccc2C1)c1ccccc1Cl
Mtb growth Cornell: 9.216%
Mtb heat-shock: -19.56%

Compound: NC(=O)c1cc(C2CCCN(C(=O)CCc3ccccn3)C2)n[nH]1 (configuration not stated)
Mtb heat-shock: 2.953%

Compound: Cc1nc(C(=O)N2CC[C@@]3(C[C@@H](NS(C)(=O)=O)CCO3)C2)cs1
Mtb growth Cornell: -7.732%
Mtb heat-shock: -11.95%

Compound: CNc1cnc(CC2COCCN(CCOc3ccccc3)C2)cn1 (configuration not stated)
Mtb growth Cornell: 10.48%
Mtb heat-shock: -15.23%

Compound: COc1c(C)cnc(CNC(=O)CCc2nc3ccccc3[nH]2)c1C
Mtb growth Cornell: 26.2%
Mtb heat-shock: -29.88%

Compound: O=C(CCN1CCCO1)N1CCCC(CO)(CCCc2ccccc2)C1 (configuration not stated)
Mtb growth Cornell: 30.06%
Mtb heat-shock: -11.68%

Compound: [H][C@]12CC[C@]([H])(CN(C(=O)c3ccc(C)nc3)C1)N(Cc1ccccc1)C2
Mtb growth Cornell: -14.75%
Mtb heat-shock: -13.46%

Compound: COC(=O)CNC(=O)CC1COc2ccc(C(=O)N(C)C)cc2N1C (configuration not stated)
Mtb growth Cornell: -19.14%
Mtb heat-shock: 7.778%

Compound: CCn1ccnc1CN1CCN(Cc2cnc(C)cn2)CC1C (configuration not stated)
Mtb growth Cornell: -3.051%
Mtb heat-shock: -8.681%

Compound: Cn1nc2c(cc1=O)CN(Cc1nc(C3CC3)no1)CC2
Mtb growth Cornell: 19.87%
Mtb heat-shock: 24.78%

Compound: CN(C)c1cc2c(nn1)CCN(C(=O)C1CCc3ccccc31)C2 (configuration not stated)
Mtb growth Cornell: -36.17%
Mtb heat-shock: 2.522%

Compound: CN(C)C(=O)NC1COC2(CCN(Cc3ccco3)CC2)C1 (configuration not stated)
Mtb growth Cornell: 28.13%
Mtb heat-shock: -2.491%

Compound: CC(C)CC(C)NC1CCN(c2cccc(-c3cscn3)c2)CC1 (configuration not stated)
Mtb growth Cornell: 2.317%
Mtb heat-shock: 3.425%

Compound: Cn1ccc(C(=O)NC2CCC23CCN(Cc2nccs2)CC3)c1 (configuration not stated)
Mtb growth Cornell: 25.89%
Mtb heat-shock: -6.92%

Compound: NC(=O)C1CCN(C(=O)c2ccn(-c3ccc(F)cc3)n2)C1 (configuration not stated)
Mtb growth Cornell: 23.28%
Mtb heat-shock: 25.5%

Compound: OC[C@H]1CN(Cc2c(Cl)cncc2Cl)C[C@H]1CN1CCOCC1
Mtb growth Cornell: -2.388%
Mtb heat-shock: -2.005%

Compound: CCn1cnnc1C1CCN(C(=O)c2cc3c(s2)CCCC3)CC1
Mtb heat-shock: -8.769%

Compound: CCC[C@@H]1CN(S(=O)(=O)c2ccc(OC)c(OC)c2)C[C@H]1NC(C)=O
Mtb heat-shock: 15.36%

Compound: O=C(NCc1cc2ccccc2s1)c1cc(CN2CCCC(O)C2)on1 (configuration not stated)
Mtb growth Cornell: -0.3022%
Mtb heat-shock: 1.375%